Library screen at single concentrations

Measurements from “University of Dundee, Small-Polar-MMV Screening Library” (2021), ChEMBL document CHEMBL3988442.

T. brucei: 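Whole-parasite assay of Trypanosoma brucei over 72 hours; the read-out is not stated. Compounds at 30 µM. The record gives no direction; compounds that gave an IC50 in retests scored well above the rest, so higher reads as stronger inhibition. Values scatter widely below zero; nearly all retest evidence comes from the higher of the two concentrations used. Of about 64,000 compounds tested this way, about 940 (1.5%) reached 50% or more in at least one test.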
Toxoplasma: 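Assay of Toxoplasma gondii numbers, read through their beta-galactosidase reporter with a colour substrate. Compounds at 10 µM. The record gives no direction; the compounds picked for IC50 retests had high values, so higher reads as fewer parasites. About 67,000 compounds were tested under these conditions; 0.38% (about 260) showed 50% or more at least once.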

Values are the deposited “Percent Effect”, in %. How 0% and 100% were set is not recorded. Most values in the screen are low, and negative values occur. Compounds were drawn at random from those tested, without regard to their results.

For CC(C)N1CCC[C@H]1C(=O)NCC1CCN(c2cnn(C)c(=O)c2)CC1 the result was T. brucei: -40.56%; Toxoplasma: 9.933%.
For CCn1cnnc1C1CCN(C(=O)c2ccc(Cl)s2)CC1 the result was T. brucei: 14.32%.
For CC(=O)N1CCCN(C(=O)c2cnn(-c3ccccc3Cl)c2)CC1 the result was T. brucei: 10.57%; Toxoplasma: -14.38%.
For O[C@H]1[C@H](n2cc(-c3ccccc3)nn2)c2ccccc2C12CCNCC2 the result was T. brucei: -2.233%; Toxoplasma: 2.384%.
For CN(C)C(=O)Cn1c2c(ccc1=O)CC(NCc1cccnc1)CC2 (configuration not stated) the result was T. brucei: -53.75%; Toxoplasma: 1.241%.
For Cc1nc(N(C)C)nc(-c2cccc(-c3ccn(CCCF)n3)c2)c1C the result was T. brucei: -23.59%; Toxoplasma: -5.639%.
For COc1ccccc1CCc1nc(CC2CCN(C)CC2)no1 the result was T. brucei: -6.682%; Toxoplasma: 5.971%.
For Cn1cc(CNC2CCc3c(ccc(=O)n3Cc3cccnc3)C2)cn1.O=C(O)C(F)(F)F.O=C(O)C(F)(F)F (configuration not stated) the result was T. brucei: -2.187%; Toxoplasma: 3.899%.
For CCNC(=O)C1CCN(c2cc(CC)nc3ccnn23)C1 (configuration not stated) the result was T. brucei: -0.8717%; Toxoplasma: 2.35%.
For Cc1cnc(NCC(C)(C)N2CCCCC2)nc1 the result was T. brucei: -18.29%; Toxoplasma: -3.051%.
For CCCSCC(=O)NS(=O)(=O)c1ccc2c(c1)OCCO2 the result was T. brucei: -22.6%; Toxoplasma: -16.23%.
For Cc1ccccc1OCC1CCCN(c2cc(N)nc(N)n2)C1 (configuration not stated) the result was T. brucei: -9.509%; Toxoplasma: 4.153%.
For COc1ccc(Cl)cc1C(=O)N(C)Cc1cc(C)on1 the result was T. brucei: -5.565%; Toxoplasma: 4.489%.
For COc1cc(C2Nc3cc(Cl)ccc3C3=NCCN32)cc(OC)c1OC (configuration not stated) the result was T. brucei: 19.53%; Toxoplasma: 24.46%.
For Cn1nnnc1SCCNC(=O)C1CCN(C(=O)C2CCCC2)CC1 the result was T. brucei: -7.816%; Toxoplasma: 9.584%.
For CC(=O)N1CCC(CCNC(C)c2cc(F)cc(F)c2)CC1 (configuration not stated) the result was T. brucei: -16.88%; Toxoplasma: 9.774%.
For COc1cccc(CC(=O)NCc2cnc(C)nc2C2CCCN2C)c1 (configuration not stated) the result was T. brucei: -8.21%; Toxoplasma: -0.4924%.
For COc1ccc(Nc2cc(C)nc(C)n2)cc1N1CCCC1=O the result was T. brucei: -16.87%; Toxoplasma: 3.599%.
For Cc1oc(-c2nc(C#N)c(NC(C)C)o2)cc1S(=O)(=O)N1CCCC1 the result was T. brucei: -18.93%; Toxoplasma: -20.68%.
For CC(CNC(=O)CCCc1ccccn1)c1ccsc1 (configuration not stated) the result was T. brucei: -19.27%; Toxoplasma: -12.79%.
For c1ccc(-c2nc(CNCCn3cccn3)cs2)nc1 the result was T. brucei: -32.04%; Toxoplasma: -14.71%.
For COCC(=O)N1CCCCC1c1ccncn1 (configuration not stated) the result was T. brucei: -36.54%; Toxoplasma: 5.893%.
For CCc1nccn1-c1cncc(C2CCN(C(=O)COC)CC2)n1 the result was T. brucei: -5.434%; Toxoplasma: -6.017%.
For COCCn1c(-c2cccc(OC)c2)cnc1NC(=O)NCC(C)C the result was T. brucei: 4.227%; Toxoplasma: -7.096%.
For CCC(CC)CS(=O)(=O)NC(=O)C1CCCC1 the result was T. brucei: -122.3%; Toxoplasma: 0%.
For CCO[C@H]1COC[C@@H]1NC(=O)c1c[nH]nc1C1CCCCC1 the result was T. brucei: -67.7%; Toxoplasma: 0.4327%.
For CC(C)NC(=O)[C@H]1CN(Cc2ccccc2)C[C@@H]1C(=O)c1ccccc1 the result was T. brucei: 0.08447%; Toxoplasma: -12.89%.
For Cc1nc(-c2ccnn2C)cc(C2CCCN(S(C)(=O)=O)C2)n1 (configuration not stated) the result was T. brucei: -14.14%; Toxoplasma: -10.23%.
For O=C(CCN1CCCC1)N1CC[C@@H](c2ccc3ccccc3c2)[C@H](O)C1 the result was T. brucei: -101.3%; Toxoplasma: 22.14%.
For CC(NC(=O)NCCCn1cncn1)c1ccc2c(c1)CC(=O)N2 (configuration not stated) the result was Toxoplasma: 14.56%.
For Cn1cc(CNCC2(O)CCCN(Cc3ccc(F)c(F)c3)C2=O)cn1 (configuration not stated) the result was T. brucei: 6.058%; Toxoplasma: 4.869%.
For COc1cccc(S(=O)(=O)NC(=O)COc2c(C)cccc2C)c1 the result was T. brucei: 9.256%; Toxoplasma: -1.059%.
For O=C(O)c1cccc(CC2CCN(c3ncccn3)CC2)c1 the result was T. brucei: -66.33%; Toxoplasma: -0.9202%.

For reference, 4 entries once more:

compound	T. brucei	Toxoplasma
Cc1nc(-c2ccnn2C)cc(C2CCCN(S(C)(=O)=O)C2)n1 (configuration not stated)	-14.14%	-10.23%
Cn1cc(CNCC2(O)CCCN(Cc3ccc(F)c(F)c3)C2=O)cn1 (configuration not stated)	6.058%	4.869%
CCc1nccn1-c1cncc(C2CCN(C(=O)COC)CC2)n1	-5.434%	-6.017%
O=C(CCN1CCCC1)N1CC[C@@H](c2ccc3ccccc3c2)[C@H](O)C1	-101.3%	22.14%